# Measurements from article PMC8384837.
# Positions count from the first letter of the chain named. Some of the results follow. For part of these data: At the low end of the ranking the order means little.
# Key:
# Conditions in all cases: yeast three-hybrid, YBZ-1, SC-Leu-His + 0.5 mM 3-AT, 4 days
# [1] = molecular target: T1, PUM1 PUF domain R3-RAT C935R + R936A + Q939T (UniProt Q14671)
# T1 sequence: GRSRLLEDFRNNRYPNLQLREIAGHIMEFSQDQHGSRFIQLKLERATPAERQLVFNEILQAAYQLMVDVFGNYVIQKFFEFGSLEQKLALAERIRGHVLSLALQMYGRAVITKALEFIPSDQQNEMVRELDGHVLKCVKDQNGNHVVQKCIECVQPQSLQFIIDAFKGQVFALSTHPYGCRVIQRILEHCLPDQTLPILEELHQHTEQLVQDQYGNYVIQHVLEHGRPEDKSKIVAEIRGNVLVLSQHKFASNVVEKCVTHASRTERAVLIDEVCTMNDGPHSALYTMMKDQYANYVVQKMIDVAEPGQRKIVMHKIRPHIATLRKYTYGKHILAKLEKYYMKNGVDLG
# [2] = molecular target: T2, PUM1 PUF domain R3-RAV C935R + R936A + Q939V (UniProt Q14671)
# T2 sequence: T1 sequence with T112V
# [3] = molecular target: T3, PUM1 PUF domain R3-RAW C935R + R936A + Q939W (UniProt Q14671)
# T3 sequence: T1 sequence with T112W
# [4] = molecular target: T4, PUM1 PUF domain R3-RAY C935R + R936A + Q939Y (UniProt Q14671)
# T4 sequence: T1 sequence with T112Y
# [5] = molecular target: T5, PUM1 PUF domain R3-RCA C935R + R936C + Q939A (UniProt Q14671)
# T5 sequence: T1 sequence with A109C, T112A
# [6] = molecular target: T6, PUM1 PUF domain R3-RCD C935R + R936C + Q939D (UniProt Q14671)
# T6 sequence: T1 sequence with A109C, T112D
# [7] = molecular target: T7, PUM1 PUF domain R3-RDR C935R + R936D + Q939R (UniProt Q14671)
# T7 sequence: T1 sequence with A109D, T112R
# [8] = molecular target: T8, PUM1 PUF domain R3-RDS C935R + R936D + Q939S (UniProt Q14671)
# T8 sequence: T1 sequence with A109D, T112S
# [9] = molecular target: T9, PUM1 PUF domain R3-RER C935R + R936E + Q939R (UniProt Q14671)
# T9 sequence: T1 sequence with A109E, T112R
# [10] = molecular target: T10, PUM1 PUF domain R3-RGG C935R + R936G + Q939G (UniProt Q14671)
# T10 sequence: T1 sequence with A109G, T112G
# [11] = molecular target: T11, PUM1 PUF domain R3-RGR C935R + R936G + Q939R (UniProt Q14671)
# T11 sequence: T1 sequence with A109G, T112R
# [12] = molecular target: T12, PUM1 PUF domain R3-RIG C935R + R936I + Q939G (UniProt Q14671)
# T12 sequence: T1 sequence with A109I, T112G
# [13] = molecular target: T13, PUM1 PUF domain R3-RIK C935R + R936I + Q939K (UniProt Q14671)
# T13 sequence: T1 sequence with A109I, T112K
# [14] = molecular target: T14, PUM1 PUF domain R3-RIR C935R + R936I + Q939R (Homo sapiens) (UniProt Q14671)
# T14 sequence: T1 sequence with A109I, T112R
# [15] = molecular target: T15, PUM1 PUF domain R3-RMR C935R + R936M + Q939R (UniProt Q14671)
# T15 sequence: T1 sequence with A109M, T112R
# [16] = molecular target: T16, PUM1 PUF domain R3-RMW C935R + R936M + Q939W (UniProt Q14671)
# T16 sequence: T1 sequence with A109M, T112W
# [17] = molecular target: T17, PUM1 PUF domain R3-RNE C935R + R936N + Q939E (UniProt Q14671)
# T17 sequence: T1 sequence with A109N, T112E
# [18] = molecular target: T18, PUM1 PUF domain R3-RNG C935R + R936N + Q939G (UniProt Q14671)
# T18 sequence: T1 sequence with A109N, T112G
# [19] = molecular target: T19, PUM1 PUF domain R3-RPA C935R + R936P + Q939A (UniProt Q14671)
# T19 sequence: T1 sequence with A109P, T112A
# [20] = molecular target: T20, PUM1 PUF domain R3-RPG C935R + R936P + Q939G (UniProt Q14671)
# T20 sequence: T1 sequence with A109P, T112G
# [21] = molecular target: T21, PUM1 PUF domain R3-RPR C935R + R936P + Q939R (UniProt Q14671)
# T21 sequence: T1 sequence with A109P, T112R
# [22] = molecular target: T22, PUM1 PUF domain R3-RPS C935R + R936P + Q939S (UniProt Q14671)
# T22 sequence: T1 sequence with A109P, T112S
# [23] = molecular target: T23, PUM1 PUF domain R3-RPV C935R + R936P + Q939V (UniProt Q14671)
# T23 sequence: T1 sequence with A109P, T112V
# [24] = molecular target: T24, PUM1 PUF domain R3-RPW C935R + R936P + Q939W (UniProt Q14671)
# T24 sequence: T1 sequence with A109P, T112W
# [25] = molecular target: T25, PUM1 PUF domain R3-RQE C935R + R936Q + Q939E (UniProt Q14671)
# T25 sequence: T1 sequence with A109Q, T112E
# [26] = molecular target: T26, PUM1 PUF domain R3-RQG C935R + R936Q + Q939G (UniProt Q14671)
# T26 sequence: T1 sequence with A109Q, T112G
# [27] = molecular target: T27, PUM1 PUF domain R3-RQL C935R + R936Q + Q939L (UniProt Q14671)
# T27 sequence: T1 sequence with A109Q, T112L
# [28] = molecular target: T28, PUM1 PUF domain R3-RQS C935R + R936Q + Q939S (UniProt Q14671)
# T28 sequence: T1 sequence with A109Q, T112S
# [29] = molecular target: T29, PUM1 PUF domain R3-RQV C935R + R936Q + Q939V (UniProt Q14671)
# T29 sequence: T1 sequence with A109Q, T112V
# [30] = molecular target: T30, PUM1 PUF domain R3-RQW C935R + R936Q + Q939W (UniProt Q14671)
# T30 sequence: T1 sequence with A109Q, T112W
# [31] = molecular target: T31, PUM1 PUF domain R3-RRA C935R + Q939A (Homo sapiens) (UniProt Q14671)
# T31 sequence: T1 sequence with A109R, T112A
# [32] = molecular target: T32, PUM1 PUF domain R3-RRE C935R + Q939E (UniProt Q14671)
# T32 sequence: T1 sequence with A109R, T112E
# [33] = molecular target: T33, PUM1 PUF domain R3-RRG C935R + Q939G (UniProt Q14671)
# T33 sequence: T1 sequence with A109R, T112G
# [34] = molecular target: T34, PUM1 PUF domain R3-RRK C935R + Q939K (UniProt Q14671)
# T34 sequence: T1 sequence with A109R, T112K
# [35] = molecular target: T35, PUM1 PUF domain R3-RRL C935R + Q939L (UniProt Q14671)
# T35 sequence: T1 sequence with A109R, T112L
# [36] = molecular target: T36, PUM1 PUF domain R3-RRP C935R + Q939P (UniProt Q14671)
# T36 sequence: T1 sequence with A109R, T112P
sequence,measurement,setting,value
GGCUAGAACUAGUGGAUCCCCCGGCGCCCGGCGGCUCGAGCCCGGGUAAGUGUAACUAGUCUGCAUGCCGCCGGGCGCCAUGCCUGCAGGUCGACUCUAGAAAACAUG,binding signal (log2 enrichment (interaction score)),[1],< -6.73
same,binding signal (log2 enrichment (interaction score)),[2],< -8.68
same,binding signal (log2 enrichment (interaction score)),[3],< -10.3
same,binding signal (log2 enrichment (interaction score)),[4],< -7.57
same,binding signal (log2 enrichment (interaction score)),[5],< -6.88
same,binding signal (log2 enrichment (interaction score)),[6],< -6.29
same,binding signal (log2 enrichment (interaction score)),[7],< -8.29
same,binding signal (log2 enrichment (interaction score)),[8],< -8.75
same,binding signal (log2 enrichment (interaction score)),[9],< -9.29
same,binding signal (log2 enrichment (interaction score)),[10],-5.32
same,binding signal (log2 enrichment (interaction score)),[11],-4.97
same,binding signal (log2 enrichment (interaction score)),[12],-6.09
same,binding signal (log2 enrichment (interaction score)),[13],-3.76
same,binding signal (log2 enrichment (interaction score)),[14],-4.5
same,binding signal (log2 enrichment (interaction score)),[15],< -8.68
same,binding signal (log2 enrichment (interaction score)),[16],< -7.96
same,binding signal (log2 enrichment (interaction score)),[17],< -8.33
same,binding signal (log2 enrichment (interaction score)),[18],< -6.8
same,binding signal (log2 enrichment (interaction score)),[19],< -8.26
same,binding signal (log2 enrichment (interaction score)),[20],-3.11
same,binding signal (log2 enrichment (interaction score)),[21],< -9.59
same,binding signal (log2 enrichment (interaction score)),[22],< -8.21
same,binding signal (log2 enrichment (interaction score)),[23],< -9.6
same,binding signal (log2 enrichment (interaction score)),[24],< -8.3
same,binding signal (log2 enrichment (interaction score)),[25],< -7.16
same,binding signal (log2 enrichment (interaction score)),[26],-5.19
same,binding signal (log2 enrichment (interaction score)),[27],< -8.64
same,binding signal (log2 enrichment (interaction score)),[28],< -8.94
same,binding signal (log2 enrichment (interaction score)),[29],< -7.58
same,binding signal (log2 enrichment (interaction score)),[30],< -7.32
same,binding signal (log2 enrichment (interaction score)),[31],-2.01
same,binding signal (log2 enrichment (interaction score)),[32],-3.4
same,binding signal (log2 enrichment (interaction score)),[33],-2.33
same,binding signal (log2 enrichment (interaction score)),[34],< -6.46
same,binding signal (log2 enrichment (interaction score)),[35],-6.8
same,binding signal (log2 enrichment (interaction score)),[36],< -7.28

# In a second layout: entries from further up.
sequence	measurement	setting	value
GGCUAGAACUAGUGGAUCCCCCGGCGCCCGGCGGCUCGAGCCCGGGUAAGUGUAACUAGUCUGCAUGCCGCCGGGCGCCAUGCCUGCAGGUCGACUCUAGAAAACAUG	binding signal (log2 enrichment (interaction score))	[12]	-6.09
same	binding signal (log2 enrichment (interaction score))	[13]	-3.76
